The list shows a part of the results. The data scatter; read single values as rough.
What follows are targets tested with ClCC(=O)N[C@@H]1CCCc2ccccc12 (assay: log2 mean competition ratio of IA-DTB cysteine labelling (DMSO/compound) (log2 ratio); higher = stronger cysteine engagement by compound). Details: 50 µM; treatment time: 4 h; cell line lysate: HEK293T.
Method: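 IA-DTB competitive cysteine chemoproteomics in HEK293T RIPA lysate. Lysates were treated with compound 29 or 30 at 50 or 200 µM for 4 h, then IA-DTB (500 µM, 1 h), trypsin-digested, NeutrAvidin-enriched and analysed by diaPASEF. Competition ratio = intensity DMSO / intensity compound (n=4 treated, n=64 DMSO); binding: mean log2 CR ≥ 1 and p ≤ 0.05 plus QC filters. Target is the cysteine site.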

Amino acid sequences for entries named in this document (tags omitted). A change or cut given only in a name is not applied to a line headed by its entry.
UniProt Q9BTX1: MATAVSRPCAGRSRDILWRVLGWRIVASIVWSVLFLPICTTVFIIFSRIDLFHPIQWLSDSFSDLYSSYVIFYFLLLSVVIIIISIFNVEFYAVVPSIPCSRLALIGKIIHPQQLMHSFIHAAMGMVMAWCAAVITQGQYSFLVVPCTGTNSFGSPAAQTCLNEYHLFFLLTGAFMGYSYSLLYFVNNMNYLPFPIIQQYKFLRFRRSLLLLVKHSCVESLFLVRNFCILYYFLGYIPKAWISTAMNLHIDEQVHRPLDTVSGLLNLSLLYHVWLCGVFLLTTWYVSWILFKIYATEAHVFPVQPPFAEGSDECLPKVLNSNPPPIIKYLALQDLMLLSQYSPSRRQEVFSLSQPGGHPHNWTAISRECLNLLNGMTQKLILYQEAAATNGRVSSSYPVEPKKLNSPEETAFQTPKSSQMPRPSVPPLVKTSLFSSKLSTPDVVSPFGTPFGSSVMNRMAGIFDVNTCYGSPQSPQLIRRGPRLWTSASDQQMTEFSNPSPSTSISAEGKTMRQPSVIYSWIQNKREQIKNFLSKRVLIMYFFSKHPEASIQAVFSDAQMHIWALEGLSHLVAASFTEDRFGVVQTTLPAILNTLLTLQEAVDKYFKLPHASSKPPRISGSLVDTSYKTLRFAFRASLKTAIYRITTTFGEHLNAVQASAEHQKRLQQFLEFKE
UniProt P51957: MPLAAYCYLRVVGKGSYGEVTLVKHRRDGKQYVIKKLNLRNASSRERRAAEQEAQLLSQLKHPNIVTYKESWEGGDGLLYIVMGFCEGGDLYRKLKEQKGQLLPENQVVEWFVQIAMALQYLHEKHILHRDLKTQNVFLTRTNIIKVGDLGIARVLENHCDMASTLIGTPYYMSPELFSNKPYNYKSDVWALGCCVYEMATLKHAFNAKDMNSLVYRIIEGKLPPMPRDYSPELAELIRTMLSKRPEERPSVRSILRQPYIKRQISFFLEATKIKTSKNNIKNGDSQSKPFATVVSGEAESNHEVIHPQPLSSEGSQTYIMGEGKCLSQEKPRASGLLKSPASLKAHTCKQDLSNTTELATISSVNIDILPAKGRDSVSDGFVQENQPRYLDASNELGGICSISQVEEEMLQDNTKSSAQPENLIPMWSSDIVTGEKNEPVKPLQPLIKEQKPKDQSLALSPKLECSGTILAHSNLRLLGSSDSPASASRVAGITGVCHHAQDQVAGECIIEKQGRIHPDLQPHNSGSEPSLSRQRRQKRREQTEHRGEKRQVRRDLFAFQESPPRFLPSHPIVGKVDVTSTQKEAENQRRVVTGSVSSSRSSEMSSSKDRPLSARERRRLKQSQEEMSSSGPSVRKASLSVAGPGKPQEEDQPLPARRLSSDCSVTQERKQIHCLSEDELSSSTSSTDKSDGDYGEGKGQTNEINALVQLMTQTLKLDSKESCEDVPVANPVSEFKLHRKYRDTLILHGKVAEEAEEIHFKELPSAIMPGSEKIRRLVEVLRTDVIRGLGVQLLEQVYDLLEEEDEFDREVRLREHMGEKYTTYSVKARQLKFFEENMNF
UniProt O43639: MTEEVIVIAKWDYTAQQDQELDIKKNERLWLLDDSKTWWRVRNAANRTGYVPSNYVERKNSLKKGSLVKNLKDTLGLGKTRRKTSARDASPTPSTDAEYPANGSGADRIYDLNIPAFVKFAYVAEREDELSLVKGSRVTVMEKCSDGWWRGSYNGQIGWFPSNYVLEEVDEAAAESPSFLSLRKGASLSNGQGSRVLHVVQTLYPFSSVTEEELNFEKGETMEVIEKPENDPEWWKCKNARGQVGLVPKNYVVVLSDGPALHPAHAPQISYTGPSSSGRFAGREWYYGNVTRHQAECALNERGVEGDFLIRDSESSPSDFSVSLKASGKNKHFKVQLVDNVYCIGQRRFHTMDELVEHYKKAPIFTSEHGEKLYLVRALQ
UniProt Q9NX24: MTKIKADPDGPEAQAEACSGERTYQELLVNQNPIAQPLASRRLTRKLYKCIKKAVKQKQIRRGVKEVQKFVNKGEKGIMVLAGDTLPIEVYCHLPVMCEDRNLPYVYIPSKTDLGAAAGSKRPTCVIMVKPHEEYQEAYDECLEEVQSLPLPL
UniProt Q5SYE7: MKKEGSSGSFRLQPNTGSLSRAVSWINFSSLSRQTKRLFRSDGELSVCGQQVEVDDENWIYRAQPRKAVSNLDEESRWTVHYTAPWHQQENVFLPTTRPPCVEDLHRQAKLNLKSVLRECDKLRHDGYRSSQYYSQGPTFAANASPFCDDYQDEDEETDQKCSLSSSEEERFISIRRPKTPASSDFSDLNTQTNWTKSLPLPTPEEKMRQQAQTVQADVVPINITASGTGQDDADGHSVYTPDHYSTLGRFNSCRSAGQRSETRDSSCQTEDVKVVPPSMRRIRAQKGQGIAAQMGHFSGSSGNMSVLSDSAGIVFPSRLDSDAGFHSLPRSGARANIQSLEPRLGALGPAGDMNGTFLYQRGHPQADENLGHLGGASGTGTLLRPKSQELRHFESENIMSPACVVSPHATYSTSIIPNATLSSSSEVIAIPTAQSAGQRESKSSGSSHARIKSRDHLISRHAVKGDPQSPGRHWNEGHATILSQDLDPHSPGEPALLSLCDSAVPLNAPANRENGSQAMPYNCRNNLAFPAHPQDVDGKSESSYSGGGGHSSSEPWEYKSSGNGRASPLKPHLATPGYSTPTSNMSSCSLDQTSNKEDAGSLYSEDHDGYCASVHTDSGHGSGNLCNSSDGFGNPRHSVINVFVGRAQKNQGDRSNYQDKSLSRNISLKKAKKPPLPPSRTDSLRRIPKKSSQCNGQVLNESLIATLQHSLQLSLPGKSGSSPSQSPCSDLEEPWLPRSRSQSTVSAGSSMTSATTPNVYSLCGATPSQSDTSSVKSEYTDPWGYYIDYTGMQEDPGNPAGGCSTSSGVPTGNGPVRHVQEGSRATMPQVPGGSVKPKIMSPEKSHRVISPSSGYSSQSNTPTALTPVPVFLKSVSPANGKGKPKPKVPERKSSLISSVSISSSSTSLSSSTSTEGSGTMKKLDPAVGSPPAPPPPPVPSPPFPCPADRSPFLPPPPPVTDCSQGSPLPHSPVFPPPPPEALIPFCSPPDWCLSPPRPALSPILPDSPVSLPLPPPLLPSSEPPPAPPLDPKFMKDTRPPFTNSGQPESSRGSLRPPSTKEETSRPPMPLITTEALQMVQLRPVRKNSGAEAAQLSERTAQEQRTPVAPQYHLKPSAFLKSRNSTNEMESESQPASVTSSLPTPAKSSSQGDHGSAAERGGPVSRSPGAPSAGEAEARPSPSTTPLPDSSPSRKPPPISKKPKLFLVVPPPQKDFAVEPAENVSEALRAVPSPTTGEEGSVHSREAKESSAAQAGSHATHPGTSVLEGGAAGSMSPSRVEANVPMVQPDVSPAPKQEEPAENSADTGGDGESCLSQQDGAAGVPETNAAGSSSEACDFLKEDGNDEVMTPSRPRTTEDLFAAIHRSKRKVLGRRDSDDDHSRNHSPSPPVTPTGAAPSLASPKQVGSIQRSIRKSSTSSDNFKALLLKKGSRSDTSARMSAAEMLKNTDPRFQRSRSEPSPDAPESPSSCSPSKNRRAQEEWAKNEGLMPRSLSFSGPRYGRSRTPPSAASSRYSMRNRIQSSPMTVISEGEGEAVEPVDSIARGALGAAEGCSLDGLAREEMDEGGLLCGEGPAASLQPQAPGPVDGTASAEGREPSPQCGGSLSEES
UniProt Q9UK39: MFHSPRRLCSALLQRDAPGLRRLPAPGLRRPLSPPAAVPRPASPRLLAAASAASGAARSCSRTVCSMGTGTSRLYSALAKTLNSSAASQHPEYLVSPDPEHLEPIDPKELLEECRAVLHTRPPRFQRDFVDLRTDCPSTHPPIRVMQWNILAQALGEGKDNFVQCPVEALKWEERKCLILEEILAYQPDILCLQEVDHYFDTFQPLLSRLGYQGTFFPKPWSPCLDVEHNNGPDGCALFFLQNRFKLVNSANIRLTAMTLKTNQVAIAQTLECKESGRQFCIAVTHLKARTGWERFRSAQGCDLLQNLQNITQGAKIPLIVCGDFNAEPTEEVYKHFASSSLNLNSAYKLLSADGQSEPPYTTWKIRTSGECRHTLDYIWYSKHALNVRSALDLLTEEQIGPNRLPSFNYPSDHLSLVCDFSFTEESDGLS
UniProt Q96JN8: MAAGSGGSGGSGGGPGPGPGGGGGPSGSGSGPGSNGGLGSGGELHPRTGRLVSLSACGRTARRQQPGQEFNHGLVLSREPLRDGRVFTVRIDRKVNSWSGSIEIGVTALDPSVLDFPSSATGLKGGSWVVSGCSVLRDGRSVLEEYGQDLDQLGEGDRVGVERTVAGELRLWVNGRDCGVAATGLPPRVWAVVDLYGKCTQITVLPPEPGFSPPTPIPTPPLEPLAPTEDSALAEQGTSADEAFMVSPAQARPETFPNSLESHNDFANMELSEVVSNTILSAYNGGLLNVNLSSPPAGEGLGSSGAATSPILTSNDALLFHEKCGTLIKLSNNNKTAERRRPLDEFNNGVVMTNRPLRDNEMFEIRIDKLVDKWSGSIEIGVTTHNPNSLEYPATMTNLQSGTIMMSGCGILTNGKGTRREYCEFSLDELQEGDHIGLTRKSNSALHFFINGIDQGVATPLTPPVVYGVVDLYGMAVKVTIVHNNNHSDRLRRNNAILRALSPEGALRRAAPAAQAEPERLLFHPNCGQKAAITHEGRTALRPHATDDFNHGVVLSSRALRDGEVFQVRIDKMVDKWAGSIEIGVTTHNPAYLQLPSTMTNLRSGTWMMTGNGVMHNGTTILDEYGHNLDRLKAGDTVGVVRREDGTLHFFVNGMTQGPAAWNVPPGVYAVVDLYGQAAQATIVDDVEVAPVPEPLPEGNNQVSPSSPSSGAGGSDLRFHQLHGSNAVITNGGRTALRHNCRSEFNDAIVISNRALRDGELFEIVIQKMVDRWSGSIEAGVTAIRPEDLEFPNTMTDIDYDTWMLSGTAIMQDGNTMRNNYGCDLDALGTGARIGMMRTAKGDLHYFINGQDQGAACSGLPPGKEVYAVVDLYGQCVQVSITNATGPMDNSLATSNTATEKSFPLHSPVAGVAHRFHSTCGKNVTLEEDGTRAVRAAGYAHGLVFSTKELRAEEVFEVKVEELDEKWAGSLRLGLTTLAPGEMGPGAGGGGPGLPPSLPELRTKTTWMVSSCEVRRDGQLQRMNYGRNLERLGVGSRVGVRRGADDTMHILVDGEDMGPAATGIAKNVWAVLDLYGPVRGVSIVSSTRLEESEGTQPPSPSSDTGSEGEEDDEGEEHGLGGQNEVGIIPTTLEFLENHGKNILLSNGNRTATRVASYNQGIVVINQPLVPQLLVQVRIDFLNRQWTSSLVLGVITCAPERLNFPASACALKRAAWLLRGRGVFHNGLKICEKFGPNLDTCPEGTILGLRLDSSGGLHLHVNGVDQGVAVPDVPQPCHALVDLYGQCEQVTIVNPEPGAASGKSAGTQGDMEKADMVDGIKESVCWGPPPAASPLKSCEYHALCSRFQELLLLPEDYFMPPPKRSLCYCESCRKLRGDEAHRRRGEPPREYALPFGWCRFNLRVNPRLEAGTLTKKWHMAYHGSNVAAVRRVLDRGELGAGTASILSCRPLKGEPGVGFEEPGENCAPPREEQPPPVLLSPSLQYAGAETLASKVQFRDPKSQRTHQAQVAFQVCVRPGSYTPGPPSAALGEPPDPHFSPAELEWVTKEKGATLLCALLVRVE
UniProt Q8NI08: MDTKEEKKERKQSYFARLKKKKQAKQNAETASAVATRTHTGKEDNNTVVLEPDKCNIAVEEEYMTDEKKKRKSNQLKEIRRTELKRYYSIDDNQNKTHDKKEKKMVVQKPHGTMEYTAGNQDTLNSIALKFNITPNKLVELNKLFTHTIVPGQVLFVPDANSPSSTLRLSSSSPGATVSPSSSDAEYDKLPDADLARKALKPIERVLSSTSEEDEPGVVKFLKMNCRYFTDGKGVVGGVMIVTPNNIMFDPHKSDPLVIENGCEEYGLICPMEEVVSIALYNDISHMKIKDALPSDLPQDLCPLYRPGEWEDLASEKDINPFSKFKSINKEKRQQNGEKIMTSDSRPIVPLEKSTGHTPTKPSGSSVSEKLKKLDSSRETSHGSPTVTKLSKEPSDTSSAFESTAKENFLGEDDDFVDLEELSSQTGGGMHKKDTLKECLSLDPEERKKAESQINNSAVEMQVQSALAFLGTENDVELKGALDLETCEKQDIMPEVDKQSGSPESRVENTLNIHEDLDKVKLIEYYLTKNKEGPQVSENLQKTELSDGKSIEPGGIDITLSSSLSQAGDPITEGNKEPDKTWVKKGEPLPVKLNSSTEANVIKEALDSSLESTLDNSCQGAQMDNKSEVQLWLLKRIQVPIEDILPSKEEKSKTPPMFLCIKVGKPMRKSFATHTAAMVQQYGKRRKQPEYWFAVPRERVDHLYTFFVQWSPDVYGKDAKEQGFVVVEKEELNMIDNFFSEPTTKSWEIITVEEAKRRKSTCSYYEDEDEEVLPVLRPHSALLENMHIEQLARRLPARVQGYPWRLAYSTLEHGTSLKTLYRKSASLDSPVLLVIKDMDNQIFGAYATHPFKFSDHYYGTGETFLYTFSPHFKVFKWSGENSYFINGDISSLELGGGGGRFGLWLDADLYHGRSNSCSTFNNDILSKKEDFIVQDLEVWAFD

| Target | log2 mean competition ratio |
| --- | --- |
| NOP56 C472 (UniProt O00567) | -0.141 |
| NDC1 C369 (UniProt Q9BTX1) | 0.159 |
| NEK4 C326 (UniProt P51957) | 0.0499 |
| NOC2L C585 (UniProt Q9Y3T9) | 0.105 |
| NCK2 C343 (UniProt O43639) | -0.0607 |
| NIPBL C1754 (UniProt Q6KC79) | -0.236 |
| NHP2 C18 (UniProt Q9NX24) | -0.163 |
| NHSL1 C524 (UniProt Q5SYE7) | -0.026 |
| NET1 C293 (UniProt Q7Z628) | -0.181 |
| NOCT C114 (UniProt Q9UK39) | -0.321 |
| NKIRAS2 C122 (UniProt Q9NYR9) | -0.06 |
| NEURL4 C1208 (UniProt Q96JN8) | 0.247 |
| NCOR1 C2322 (UniProt O75376) | 0.421 |
| NCBP1 C332 (UniProt Q09161) | -0.0155 |
| NCOA7 C487 (UniProt Q8NI08) | 0.00997 |
| NCL C543 | -0.0205 |
| NLRX1 C779 (UniProt Q86UT6) | 0.0373 |
| NKTR C393 (UniProt P30414) | -0.111 |
| NF1 C509 (UniProt P21359) | -0.158 |
| NDUFAB1 C140 (UniProt O14561) | 0.198 |

Same assay, conditions: 200 µM; treatment time: 4 h; cell line lysate: HEK293T

| Target | log2 mean competition ratio |
| --- | --- |
| NOP56 C472 (UniProt O00567) | -0.326 |
| NDC1 C369 (UniProt Q9BTX1) | -0.199 |
| NEK4 C326 (UniProt P51957) | -0.108 |
| NOC2L C585 (UniProt Q9Y3T9) | 0.18 |
| NCK2 C343 (UniProt O43639) | -0.189 |
| NIPBL C1754 (UniProt Q6KC79) | 0.607 |
| NHP2 C18 (UniProt Q9NX24) | -0.00566 |
| NHSL1 C524 (UniProt Q5SYE7) | 0.318 |
| NET1 C293 (UniProt Q7Z628) | 0.173 |
| NOCT C114 (UniProt Q9UK39) | -0.123 |
| NKIRAS2 C122 (UniProt Q9NYR9) | 0.0791 |
| NEURL4 C1208 (UniProt Q96JN8) | 0.0885 |
| NCOR1 C2322 (UniProt O75376) | -0.315 |
| NCBP1 C332 (UniProt Q09161) | -0.0826 |
| NCOA7 C487 (UniProt Q8NI08) | -0.0493 |
| NCL C543 | -0.207 |
| NLRX1 C779 (UniProt Q86UT6) | 0.158 |
| NKTR C393 (UniProt P30414) | 0.18 |
| NF1 C509 (UniProt P21359) | -0.222 |
| NDUFAB1 C140 (UniProt O14561) | -0.488 |

— the supplement of paper PMC11732987, “Enantioselective OTUD7B fragment discovery through chemoproteomics screening and high-throughput optimisation” (Communications Chemistry, 2025)
